A short description of the experiment: qHTS Assay for Lipid Storage Modulators in Drosophila S3 Cells.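 For cell number change: cells counted by Cell Tracker Red CMTPX staining in the red channel.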 As to conditions: BODIPY lipid droplet fluorescence, 18-24 h; for cell number change: measured here: cell count max response, cells fed with added oleic acid. In outline: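 Drosophila S3 cells loaded with oleic acid (400 uM, as added) and compounds at several concentrations; lipid droplets imaged by 488-nm laser-scanning cytometry, 500–530 nm intensity and object ratio to cell channel. Percent activity normalized to 20 uM Triacsin C.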

Setting [1] is: measured here: lipid fluorescence (Fed channel) AC50, cells fed with added oleic acid.
Setting [2] is: measured here: cell number channel AC50, cells fed with added oleic acid.

The other results are listed elsewhere or left out. Shown are side measurements of this screen, not its main read-out; they come without a call. The list favours compounds with an active or inconclusive main result. Potencies come from curve fits of mixed quality, noted in brackets.

Consider `Cc1nc(-c2ccccn2)sc1C(=O)Nc1ccc(Cl)c(Cl)c1`, for which the AC50 under setting [1] is 6.51 µM [rising, single point].
With `CC(C)(C)C(=O)Cn1nnc(-c2ccc(C(F)(F)F)cc2)n1`, the cell number change is 26.4%.
As for `O=C(NCCc1nc2ccccc2[nH]1)c1ccc(Br)o1`, the cell number change is 0.952%. For the same compound, the AC50 under setting [1] was 29.1 µM [falling, single point].
With `C(#Cc1ccccc1)CN1CCN(c2ccccn2)CC1`, the cell number change was -0.75%. Besides, the AC50 under setting [1] is 0.651 µM [falling, full curve, poor fit].
On to `Cc1onc(-c2c(F)cccc2Cl)c1C(=O)Nc1ccc(S(=O)(=O)Nc2ncccn2)cc1`, for which the cell number change came out at 1.29%.
As to `Cc1ccc(Nc2c(-c3ccccn3)nc3cccc(C)n23)cc1`, the cell number change is -74.9%. The AC50 under setting [2] was 5.17 µM [falling, single point]. Further, the AC50 under setting [1] is 29.1 µM [falling, single point].
Consider `CC(C(=O)NCC1(c2ccccc2)CCCC1)N1CCCC1` (stereo not drawn), for which the cell number change is -12.1%. Moreover, under setting [1], the AC50 was 0.184 µM [rising, full curve, poor fit].
Regarding `CCC1=C2CC[C@H]3C(=O)N(C)C(=O)[C@H]3[C@H]2[C@@]2(Cc3ccccc3)C(=NCCOC)OC(=O)N2C1=O`, the cell number change amounted to 13.2%. The AC50 under setting [1] was 1.84 µM [rising, full curve, poor fit].
Take `CCOC(=O)c1c(NC(=S)NC)sc2c1CCCC2`: the cell number change is -36%. Moreover, the AC50 under setting [2] was 29.1 µM [falling, single point]. Under setting [1], the AC50 is 29.1 µM [falling, single point].
In the case of `CCOC(=O)N1CCC(c2nc(C)sc2C(=O)O)CC1`, the cell number change worked out at 21.1%. In addition, the AC50 under setting [1] was 3.66 µM [rising, single point].
Regarding `CN(CCc1ccccn1)S(=O)(=O)c1ccccc1F`, the cell number change was -0.349%. Besides, the AC50 under setting [1] is 6.51 µM [rising, single point].
Regarding `CCC1CCC2(CC1)NC(=O)N(CC(=O)Nc1cccc(S(=O)(=O)N(C)c3ccccc3)c1)C2=O` (stereo not drawn), the cell number change is -9.02%.
With `Cc1cnn(C(=S)NCc2ccc(Cl)cc2)c1`, the cell number change was -36.5%. For the same compound, the AC50 under setting [2] is 13 µM [falling, partial curve]. Moreover, the AC50 under setting [1] was 16.4 µM [falling, partial curve].
With `NC(=S)N/N=C/c1c[nH]c2ccc(OCc3ccccc3)cc12`, the cell number change was determined as 3.02%. In addition, the AC50 under setting [2] was 0.731 µM [falling, partial curve].
Regarding `Cc1cc(=O)n2nc(N3CCCC3C(=O)NCc3ccccn3)sc2n1` (stereo not drawn), the cell number change was found to be 0.129%.
For `Cc1ccc2ccccc2[n+]1CCCS(=O)(=O)[O-]`, the cell number change was -12.9%. The AC50 under setting [1] is 0.00461 µM [falling, full curve, poor fit].
`Cc1ccc(C(=O)NC2(C(F)(F)F)N=C3SCCN3C2=O)cc1` (stereo not drawn): the cell number change is -26.6%. Moreover, the AC50 under setting [1] was 18.4 µM [falling, partial curve].
As for `N#Cc1ccc(-c2csc(NC(=O)/C=C/c3cccs3)n2)cc1`, the cell number change is -25.7%. Further, the AC50 under setting [2] was 0.731 µM [falling, full curve, poor fit].
For `COc1cc2c(C#CCCCO)c(-c3ccc(C#N)cc3)oc(=O)c2cc1OC`, the cell number change was 21.5%. Also, the concentration at half-maximal activity (AC50) under setting [1] was 0.00461 µM [rising, full curve, poor fit].
Take `CCN(CC)C(=O)c1sc(NC(=O)Cc2ccc(OC)cc2)c(C#N)c1C`: the AC50 under setting [2] is 2.31 µM [rising, partial curve].
Same read-out and setting: with `CC(=O)NC(CC(=O)Nc1cccc(S(=O)(=O)N2CCCCC2)c1)c1ccccc1` (stereo not drawn) the figure was 6.51 µM [rising, single point].
For `C=C(C)CN=c1scc(C)n1/N=C/c1ccco1`, the cell number change was found to be 31.1%. Also, the AC50 under setting [2] is 32.6 µM [rising, single point].
On to `COc1ccc(C)cc1NC(=O)CSCc1ccccc1C`, for which the cell number change was -13.5%. The AC50 under setting [1] was 6.51 µM [falling, partial curve].
Consider `O=C1C(=O)N(CNc2ccccn2)c2ccccc21`, for which the cell number change is -3.71%. Moreover, the AC50 under setting [2] is 6.51 µM [falling, single point]. The AC50 under setting [1] was 0.651 µM [falling, full curve, poor fit].
Turning to `CCCCn1c(O)c(/C=C/C=C/C=Nc2ccccc2)sc1=S`, the cell number change came out at 6.72%. For the same compound, under setting [2], the AC50 was 0.0366 µM [falling, full curve, poor fit]. Further, under setting [1], the AC50 is 0.00651 µM [falling, full curve, poor fit].
As for `O=C(CN1CCCc2ccccc21)NCCc1ccc(F)cc1`, the cell number change came out at 6.46%. The AC50 under setting [1] is 0.092 µM [falling, full curve, poor fit].
With `CC(=O)Nc1ncc(Cc2cc(Cl)ccc2Cl)s1`, the cell number change is 14%. Also, the AC50 under setting [1] is 13 µM [rising, partial curve, poor fit].
`COc1ccc(C(=O)NC(=S)Nc2ccc(N3CCN(C(C)=O)CC3)cc2)cc1[N+](=O)[O-]`: the cell number change is -36.7%. The AC50 under setting [2] was 18.4 µM [falling, single point]. The AC50 under setting [1] was 25.9 µM [falling, single point].
For the compound `COc1ccc([C@H]2CC(=O)C=C(c3cccc(C(F)(F)F)c3)C2)cc1`, the cell number change was -20.4%. Further, the AC50 under setting [2] was 1.3 µM [falling, single point]. Also, the concentration at half-maximal activity (AC50) under setting [1] is 0.92 µM [falling, single point].
With `N#CC1(NC(=O)COC(=O)c2nc(Cl)ccc2Cl)CCCCC1`, the cell number change worked out at 2.62%. Further, the AC50 under setting [1] was 1.84 µM [falling, partial curve].
On to `COc1ccc(N(C(=O)c2ccco2)C(C(=O)NC2CCCC2)c2ccco2)cc1OC` (stereo not drawn), for which the cell number change was -1.9%. Besides, the AC50 under setting [1] is 6.51 µM [falling, single point].
Turning to `Cn1nnc2ccccc2c1=O`, the cell number change was found to be 16.6%. In addition, under setting [1], the AC50 was 16.4 µM [rising, single point].
In the case of `Nc1nc2c(s1)COc1ccccc1-2`, the cell number change came out at 27%. In addition, the concentration at half-maximal activity (AC50) under setting [1] is 9.2 µM [rising, partial curve].
Consider `Cc1ccnc(NC(=O)C2CCN(S(=O)(=O)c3ccc4c(c3)CC(C)N4C(=O)C3CCC3)CC2)c1` (stereo not drawn), for which the cell number change came to 1.53%. The AC50 under setting [1] is 6.51 µM [rising, single point].
Regarding `Cc1ccc(Nc2nnc(SCC(=O)Nc3ncc(S(=O)(=O)c4ccc([N+](=O)[O-])cc4)s3)s2)cc1`, the cell number change came to 54.8%. In addition, the half-maximal activity concentration (AC50) under setting [2] is 29.1 µM [rising, single point]. In addition, under setting [1], the AC50 is 0.517 µM [rising, full curve, poor fit].
With `COC(=O)c1cc(C(=O)N2CCN(c3cccc(Cl)c3)CC2)cc([N+](=O)[O-])c1`, the cell number change stood at 14.3%. Also, the half-maximal activity concentration (AC50) under setting [1] was 20.6 µM [rising, single point].
With `O=S(=O)(Nc1ccc(-c2ccc3nncn3n2)cc1)c1cccc(F)c1`, the cell number change is -37%. In addition, the AC50 under setting [2] is 14.6 µM [falling, single point]. Besides, under setting [1], the AC50 is 23.1 µM [falling, single point].
`CC(C)CC(NS(=O)(=O)c1cc(C(=O)O)ccc1Cl)C(=O)O` (stereo not drawn): the cell number change is -24%. For the same compound, under setting [2], the AC50 is 3.26 µM [falling, full curve, poor fit].
For the compound `COC(=O)Nc1nc(C)c(C(=O)c2ccccc2)s1`, the cell number change came out at 33.1%. In addition, the AC50 under setting [1] is 6.51 µM [falling, partial curve, poor fit].
Take `COc1ccc(CNC(=S)Nc2ccc(F)c(Cl)c2)cc1OC`: the cell number change stood at 3.29%.
`Fc1cccc(Cl)c1/C=N/Nc1ccccn1`: the cell number change was 52.6%. Besides, under setting [2], the AC50 is 1.64 µM [rising, partial curve]. Also, the AC50 under setting [1] is 0.0731 µM [rising, full curve, poor fit].
Turning to `OCCC1CN(CC2CC2)CCN1Cc1ccc(F)c(F)c1` (stereo not drawn), the cell number change was 7.09%. Further, the AC50 under setting [1] was 6.51 µM [falling, single point].
With `COc1ccc(-c2nc(NC(=O)CSc3nnc4ccccn34)ns2)cc1`, the cell number change amounted to 10.8%. Under setting [1], the AC50 is 0.00461 µM [falling, full curve, poor fit].
In the case of `CCC(C)NC(=O)c1cc2c(=O)n3cccc(C)c3nc2s1` (stereo not drawn), the cell number change worked out at 34.2%. The half-maximal activity concentration (AC50) under setting [2] was 9.2 µM [rising, partial curve, poor fit].
As to `CCN(CC(=O)NCc1ccc(Cl)cc1)C(=O)CSCC(=O)Nc1ccc(OC)cc1`, the AC50 under setting [1] is 29.1 µM [falling, single point].
For the compound `O=C(CN1CCN(c2ccccn2)CC1)NCCc1ccccc1`, the cell number change turned out to be 49.1%. The AC50 under setting [1] was 29.1 µM [rising, partial curve, poor fit].
Regarding `CCC(NC(=O)CSc1nnnn1C1CC1)c1ccc(Br)cc1` (stereo not drawn), the cell number change is 1.87%. Moreover, under setting [2], the AC50 is 0.82 µM [rising, single point]. In addition, the AC50 under setting [1] is 0.82 µM [rising, single point].
Consider `CC(C)(CNC(=O)c1ccc(Cl)c(S(=O)(=O)N2CCc3ccccc3C2)c1)N1CCOCC1`, for which the cell number change came to 4.35%.
As for `CCOc1ccc(/C=C/C(=O)NCc2ccccc2)cc1`, the cell number change came out at 85.9%. For the same compound, under setting [2], the AC50 was 29.1 µM [rising, single point]. For the same compound, the AC50 under setting [1] was 0.517 µM [rising, partial curve, poor fit].
For the compound `CCc1nc2ccccc2c(C(=O)OCC(=O)N(CC(C)C)c2c(N)n(Cc3ccccc3)c(=O)[nH]c2=O)c1C`, the cell number change turned out to be 2.76%. Under setting [1], the AC50 was 1.3 µM [rising, partial curve].
As to `CCn1nc(C)c(/C=N\NC(=O)c2ccc3c(c2)OCO3)c1C`, the cell number change was determined as 32.8%. Further, the AC50 under setting [2] is 0.0058 µM [rising, full curve, poor fit]. The AC50 under setting [1] was 0.00461 µM [rising, full curve, poor fit].
Regarding `O=C(NCc1ccccc1)c1ccc(-c2ccccc2C(F)(F)F)o1`, the cell number change was found to be 19%. Further, the AC50 under setting [1] was 5.17 µM [rising, partial curve].
For the compound `CCOc1ncccc1C(=O)OCC(=O)NC1CC1`, the cell number change is -15.1%. Besides, under setting [1], the AC50 is 23.1 µM [falling, partial curve].
Regarding `O=[N+]([O-])c1ccc(Cl)c(S(=O)(=O)Nc2cccc(-c3ccc(N4CCCC4)nn3)c2)c1`, the cell number change was 104%. Further, under setting [2], the AC50 was 29.1 µM [rising, single point].
Consider `O=C(COC(=O)c1ccc(Br)o1)NCc1cccs1`, for which the cell number change was -2.38%.
`CCOC(=O)C1CCCN(CC(O)COc2cccc(C)c2)C1` (stereo not drawn): the cell number change is -19.3%. Moreover, the AC50 under setting [1] was 0.82 µM [falling, full curve, poor fit].
Take `NC(=O)CNC(=O)C1CCN(S(=O)(=O)c2ccc(-n3cnnn3)cc2)CC1`: the cell number change was found to be 3.85%.
With `Cn1cc(Br)c(C(=O)NNC(=O)c2ccc(Cl)cc2)n1`, the cell number change came to 31.1%. In addition, the AC50 under setting [2] is 0.116 µM [rising, full curve, poor fit]. The concentration at half-maximal activity (AC50) under setting [1] is 0.116 µM [rising, full curve, poor fit].

(Values after PubChem BioAssay AID2685 (National Center for Advancing Translational Sciences (NCATS), 2010).)
